US9611293 (dated 2017)

Experiment: general procedure: solution-phase peptide synthesis; HATU/Et3N; DCC/HOBt
Settings: coupling step, AcOH

For Boc-VYIHP[dA]-OBn, the step yield was 71% and the “final HPLC purity” value was 100%.
For Cbz-[Sar][Arg(NO2)]VYI-OH, the step yield was 81% and the “final HPLC purity” value was 97.1%.
In the case of “Z-Sar-Arg(NO2)-Val-Tyr-Ile-His-Pro-(D)Ala-OBn”, the step yield is reported as 51% and the “final HPLC purity” value is reported as 98.4%.

Square brackets hold non-standard residues; d marks the D form. * marks the point of attachment. Arg(NO2) = N=C(NCCC[C@H](N)C(=O)O)N[N+](=O)[O-]; Cbz = O=C(OCc1ccccc1)*; Boc = CC(C)(C)OC(=O)*; OBn = c1ccc(CO*)cc1; Sar = CNCC(=O)O
